Measured values reported in article PMC10487795.
These are yes or no findings as the source states them, for the method shown. In cells and extracts the contact can be indirect. A yes stands for co-enrichment or nearness to the bait. Other partners may have been found.

Protein sequences, listed by entry. Tags and fused reporters are not part of them.
UniProt P0C746: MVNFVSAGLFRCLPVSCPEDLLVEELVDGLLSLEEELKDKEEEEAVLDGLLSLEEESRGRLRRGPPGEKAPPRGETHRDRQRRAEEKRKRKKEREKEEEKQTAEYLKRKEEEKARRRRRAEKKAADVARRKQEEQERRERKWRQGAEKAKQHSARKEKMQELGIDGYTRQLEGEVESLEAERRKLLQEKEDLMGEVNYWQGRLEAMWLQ
UniProt P13010: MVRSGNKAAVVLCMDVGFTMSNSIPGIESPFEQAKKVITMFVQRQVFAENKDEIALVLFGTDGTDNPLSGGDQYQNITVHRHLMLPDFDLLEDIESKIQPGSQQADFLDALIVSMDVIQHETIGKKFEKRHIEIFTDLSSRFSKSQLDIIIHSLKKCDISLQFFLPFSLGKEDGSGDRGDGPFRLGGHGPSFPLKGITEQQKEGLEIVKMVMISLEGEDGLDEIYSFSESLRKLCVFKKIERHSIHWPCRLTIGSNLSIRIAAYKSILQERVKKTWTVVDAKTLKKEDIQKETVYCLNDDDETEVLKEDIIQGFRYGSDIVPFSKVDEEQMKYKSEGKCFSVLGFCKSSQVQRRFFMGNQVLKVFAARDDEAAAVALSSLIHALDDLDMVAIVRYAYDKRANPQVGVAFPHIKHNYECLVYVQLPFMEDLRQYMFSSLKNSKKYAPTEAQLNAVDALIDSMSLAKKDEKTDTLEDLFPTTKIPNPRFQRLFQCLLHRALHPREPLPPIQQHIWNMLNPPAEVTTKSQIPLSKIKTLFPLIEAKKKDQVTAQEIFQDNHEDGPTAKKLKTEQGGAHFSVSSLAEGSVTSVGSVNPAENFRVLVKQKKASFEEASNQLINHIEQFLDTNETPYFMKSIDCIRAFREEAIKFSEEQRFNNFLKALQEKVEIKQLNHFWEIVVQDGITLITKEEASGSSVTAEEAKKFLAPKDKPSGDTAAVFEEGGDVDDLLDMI
UniProt P12956: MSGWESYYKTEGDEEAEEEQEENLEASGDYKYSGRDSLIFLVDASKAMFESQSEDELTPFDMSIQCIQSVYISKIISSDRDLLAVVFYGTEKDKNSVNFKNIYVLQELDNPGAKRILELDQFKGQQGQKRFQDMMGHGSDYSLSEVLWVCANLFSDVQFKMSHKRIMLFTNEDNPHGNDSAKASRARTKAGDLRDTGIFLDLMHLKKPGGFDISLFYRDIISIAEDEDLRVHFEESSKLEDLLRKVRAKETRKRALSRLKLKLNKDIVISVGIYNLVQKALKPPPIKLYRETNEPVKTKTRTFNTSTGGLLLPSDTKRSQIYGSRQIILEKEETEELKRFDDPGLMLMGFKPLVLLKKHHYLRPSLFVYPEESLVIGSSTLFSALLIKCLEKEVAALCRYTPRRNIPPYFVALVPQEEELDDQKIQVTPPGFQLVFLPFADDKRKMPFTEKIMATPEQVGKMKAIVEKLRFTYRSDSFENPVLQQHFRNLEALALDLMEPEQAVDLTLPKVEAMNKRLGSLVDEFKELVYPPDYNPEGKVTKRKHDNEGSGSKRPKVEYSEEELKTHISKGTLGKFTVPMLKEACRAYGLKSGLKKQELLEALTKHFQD
UniProt P67809: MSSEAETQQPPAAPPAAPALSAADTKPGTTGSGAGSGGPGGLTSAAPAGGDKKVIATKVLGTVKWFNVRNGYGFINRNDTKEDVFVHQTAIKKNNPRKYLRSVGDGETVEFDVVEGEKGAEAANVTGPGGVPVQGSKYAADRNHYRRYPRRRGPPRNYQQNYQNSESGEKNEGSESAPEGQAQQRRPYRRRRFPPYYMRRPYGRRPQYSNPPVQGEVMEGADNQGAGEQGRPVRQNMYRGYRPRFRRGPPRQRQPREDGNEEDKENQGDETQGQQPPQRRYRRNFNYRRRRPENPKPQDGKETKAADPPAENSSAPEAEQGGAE

B1: ILF3 (protein, UniProt Q12906 1-894)
chain: MRPMRIFVNDDRHVMAKHSSVYPTQEELEAVQNMVSHTERALKAVSDWIDEQEKGSSEQAESDNMDVPPEDDSKEGAGEQKTEHMTRTLRGVMRVGLVAKGLLLKGDLDLELVLLCKEKPTTALLDKVADNLAIQLAAVTEDKYEILQSVDDAAIVIKNTKEPPLSLTIHLTSPVVREEMEKVLAGETLSVNDPPDVLDRQKCLAALASLRHAKWFQARANGLKSCVIVIRVLRDLCTRVPTWGPLRGWPLELLCEKSIGTANRPMGAGEALRRVLECLASGIVMPDGSGIYDPCEKEATDAIGHLDRQQREDITQSAQHALRLAAFGQLHKVLGMDPLPSKMPKKPKNENPVDYTVQIPPSTTYAITPMKRPMEEDGEEKSPSKKKKKIQKKEEKAEPPQAMNALMRLNQLKPGLQYKLVSQTGPVHAPIFTMSVEVDGNSFEASGPSKKTAKLHVAVKVLQDMGLPTGAEGRDSSKGEDSAEETEAKPAVVAPAPVVEAVSTPSAAFPSDATAEQGPILTKHGKNPVMELNEKRRGLKYELISETGGSHDKRFVMEVEVDGQKFQGAGSNKKVAKAYAALAALEKLFPDTPLALDANKKKRAPVPVRGGPKFAAKPHNPGFGMGGPMHNEVPPPPNLRGRGRGGSIRGRGRGRGFGGANHGGYMNAGAGYGSYGYGGNSATAGYSQFYSNGGHSGNASGGGGGGGGGSSGYGSYYQGDNYNSPVPPKHAGKKQPHGGQQKPSYGSGYQSHQGQQQSYNQSPYSNYGPPQGKQKGYNHGQGSYSYSNSYNSPGGGGGSDYNYESKFNYSGSGGRSGGNSYGSGGASYNPGSHGGYGGGSGGGSSYQGKQGGYSQSNYNSPGSGQNYSGPPSSYQSSQGGYGRNADHSMNYQYR
B2: JunD (protein, UniProt P17535 1-347)
chain: METPFYGDEALSGLGGGASGSGGSFASPGRLFPGAPPTAAAGSMMKKDALTLSLSEQVAAALKPAAAPPPTPLRADGAPSAAPPDGLLASPDLGLLKLASPELERLIIQSNGLVTTTPTSSQFLYPKVAASEEQEFAEGFVKALEDLHKQNQLGAGAAAAAAAAAAGGPSGTATGSAPPGELAPAAAAPEAPVYANLSSYAGGAGGAGGAATVAFAAEPVPFPPPPPPGALGPPRLAALKDEPQTVPDVPSFGESPPLSPIDMDTQERIKAERKRLRNRIAASKCRKRKLERISRLEEKVKTLKSQNTELASTASLLREQVAQLKQKVLSHVNSGCQLLPQHQVPAY
B3: JunB (protein, UniProt P17275 1-347)
chain: MCTKMEQPFYHDDSYTATGYGRAPGGLSLHDYKLLKPSLAVNLADPYRSLKAPGARGPGPEGGGGGSYFSGQGSDTGASLKLASSELERLIVPNSNGVITTTPTPPGQYFYPRGGGSGGGAGGAGGGVTEEQEGFADGFVKALDDLHKMNHVTPPNVSLGATGGPPAGPGGVYAGPEPPPVYTNLSSYSPASASSGGAGAAVGTGSSYPTTTISYLPHAPPFAGGHPAQLGLGRGASTFKEEPQTVPEARSRDATPPVSPINMEDQERIKVERKRLRNRLAATKCRKRKLERIARLEDKVKTLKAENAGLSSTAGLLREQVAQLKQKVMTHVSNGCQLLLGVKGHAF

Molecular target: S-tagged HBZ (HTLV-1 basic leucine zipper factor) (HTLV-1) (UniProt P0C746)
Test: affinity purification with mass spectrometry; S-tag affinity capture of S-tagged HBZ (and APH-2) from cell lysate, SDS-PAGE, in-gel trypsin, shotgun proteomics (Q Exactive, Mascot, Scaffold; probability >95%, minimum 2 peptides)

Row | Molecule | binding
1 | XRCC5 (from UniProt P13010 1-732) | binds
2 | XRCC6 (from UniProt P12956 1-609) | binds
3 | Y-box binding protein (YBX1) (from UniProt P67809 1-324) | binds
4 | B1 | binds
5 | B2 | binds
6 | B3 | binds
